Some of the results follow. Values are raw readings; no control value is given beside them.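 In the initial screen, polymyxin B was used at a concentration that permeabilizes Salmonella's outer membrane but not its inner membrane. Maximum growth was set by DMSO wells with or without polymyxin B. Since plates varied, data were ranked per plate, and compounds giving the lowest OD600 advanced as hits.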
System: Salmonella enterica serovar Typhimurium SL1344
Assay: bacterial growth OD600 after 18 h with compound and polymyxin B; higher = more bacterial growth (less inhibition)
Details: 50 µM, Mueller-Hinton broth

| SMILES | bacterial growth OD600 (polymyxin B 1 µg/mL) | bacterial growth OD600 (polymyxin B 0.75 µg/mL) |
| --- | --- | --- |
| CCOC(=O)C1(CCOc2ccccc2)CCN(Cc2ccccc2OC)CC1 | 0.873 |  |
| CN(Cc1ccc(F)cc1)c1ccc(OCC(=O)N2CCN(C/C=C/c3ccccc3)CC2)nn1 |  | 0.803 |
| COc1c(C)cc(C(=O)C2CCCN(Cc3cnn(C)c3)C2)cc1C (centres undefined) | 0.94 |  |
| CC(C)Oc1cccc(C(=O)C2CCCN(CCCn3cccn3)C2)c1 (centres undefined) |  | 0.756 |
| COc1c(C)cc(C(=O)C2CCCN(C3CCC3)C2)cc1C (centres undefined) | 0.94 |  |
| CCN1CCN(C(=O)c2ccc(N3CCC(NC(C)Cc4ccccn4)CC3)cc2)CC1 (centres undefined) |  | 0.968 |
| CCOC(=O)C1(CCOc2ccccc2)CCN(Cc2cccc(O)c2)CC1 | 0.808 |  |
| CC(C)NC(=O)c1cn(Cc2ccccc2)cc(C(=O)N2CCC(Cc3ccccc3)CC2)c1=O |  | 0.355 |
| CC(=O)C1(c2ccccc2)CCN(C(=O)C2CCC(=O)N(CCN3CCOCC3)C2)CC1 (centres undefined) | 0.956 |  |
| CN(Cc1ccccc1)C1CCCN(C(=O)Cc2n[nH]c3ccccc23)C1 (centres undefined) |  | 0.828 |
| COc1ccccc1Cn1cc(C(=O)NCCC(C)C)c(=O)c(C(=O)N(C)CCc2ccccn2)c1 |  | 0.759 |
| Cc1oc(-c2cc(F)cc(F)c2)nc1CN1C[C@@H]2C[C@H](C1)c1cccc(=O)n1C2 | 0.975 |  |
| CC(C)N1CCN(Cc2c[nH]c3ccccc23)CC1CCO (centres undefined) | 0.831 |  |
| CCNC(=O)c1cn(CC2CCCCC2)cc(C(=O)N2CCN(c3ccc(C(C)=O)cc3)CC2)c1=O |  | 0.909 |
| COc1cccc(CN2CCCC(C(=O)c3ccc(SC)cc3)C2)c1 (centres undefined) | 0.646 |  |
| O=C1O[C@@H]2CN(C3CSCCSC3)C[C@@H]2N1CCc1ccccn1 |  | 0.774 |
| Cc1nc(C)c(CC(=O)N2CCCC(N3CCN(c4ccccc4C)CC3)C2)s1 (centres undefined) | 1 |  |
| CC1(C)C(C(=O)N2CCCC(CNC(=O)c3ccc(F)cc3)C2)C1(C)C (centres undefined) | 0.915 |  |
| COc1ccc(CC(=O)Nc2ccc(N3CCC(NC(C)Cc4cccnc4)CC3)cc2)cc1 (centres undefined) |  | 1.02 |

A draw from above in order of number of heavy atoms, rising.

| SMILES | bacterial growth OD600 (polymyxin B 1 µg/mL) | bacterial growth OD600 (polymyxin B 0.75 µg/mL) |
| --- | --- | --- |
| COc1c(C)cc(C(=O)C2CCCN(Cc3cnn(C)c3)C2)cc1C (centres undefined) | 0.94 |  |
| CC(C)Oc1cccc(C(=O)C2CCCN(CCCn3cccn3)C2)c1 (centres undefined) |  | 0.756 |
| CCOC(=O)C1(CCOc2ccccc2)CCN(Cc2ccccc2OC)CC1 | 0.873 |  |

From the supplement of paper PMC12889115
